# Measured values taken from the supplement of paper PMC10663445.
# Structures can show the parent of a compound that is named as a salt. The list shows a part of the results. Single values are uncertain, as repeats are few or missing.
# System: hsa-miR-132-3p
# Test: miR-132-3p level in NGN2-iNs after compound treatment (TMM-normalised, ComBat batch-corrected) (batch-corrected normalised expression (arbitrary units)); higher = higher miR-132-3p expression
# Conditions: 10 µM; 24 h; human iPSC-derived NGN2 neurons (BR43)
row,SMILES,miR-132-3p level in NGN2-iNs
1,O=C1O[C@H]([C@@H](O)CO)C([O-])=C1O.[Na+] [Sodium ascorbate],0.623
2,Cc1ccc(S(=O)(=O)Nc2nc3ccccc3nc2Nc2ccc3nsnc3c2)cc1 [XL147 analogue],-0.169
3,NC1(Cc2ccc(Cl)cc2)CCN(c2ncnc3[nH]ccc23)CC1,-1.41
4,Cc1cc(C(C)Nc2ccccc2)c2nc(N3CCOCC3)cc(=O)n2c1 (stereo unspecified),-2.85
5,Clc1ccc2nsnc2c1NC1=NCCN1 [Tizanidine HCl],-0.206
6,CC(C)Oc1ccc2c(=O)c(-c3ccccc3)coc2c1 [Ipriflavone (Osteofix)],-0.656
7,CCCCOc1ccc(C(=O)Nc2ccc(F)cc2F)cc1,-1.06
8,Nc1nc(OCc2cc(Br)cs2)c2[nH]cnc2n1 [Lomeguatrib],-2.33
9,CCOc1nc2cccc(C(=O)O)c2n1Cc1ccc(-c2ccccc2-c2nnn[nH]2)cc1 [Candesartan],0.526
10,C[C@@](Cc1ccc(O)c(O)c1)(NN)C(=O)O [Carbidopa],-0.247
11,CC1CCN(CC[C@H]2CCCN2S(=O)(=O)c2cccc(O)c2)CC1,0.0781
12,Nc1ncnc2c1ncn2[C@@H]1O[C@H](CO)[C@@H](O)[C@@H]1O [Vidarabine],1.99
13,CN(C)CCC(c1ccc(Br)cc1)c1ccccn1 (stereo unspecified) [Brompheniramine hydrogen maleate],0.372
14,COc1ccc(Cl)cc1NC(=O)Nc1cc(C)nc2ccccc12,-0.523
15,O=C1CC[C@@H](C(=O)N2CSC[C@H]2C(=O)O)N1 [Pidotimod],-0.482
16,c1ccc(-c2ccc(C(c3ccccc3)n3ccnc3)cc2)cc1 (stereo unspecified) [Bifonazole],0.318
17,CCCCNc1ncc(C(=O)NCc2ccc(-n3ccnc3)cc2)c(NC2CCC(O)CC2)n1 (stereo unspecified),-0.41
18,CCOC(=O)[C@H]1O[C@@H]1C(=O)N[C@@H](CC(C)C)C(=O)NCCC(C)C [Aloxistatin (E64d)],0.282
19,COc1cccc(C=NCCN=Cc2cccc(OC)c2[O-])c1[O-].[Cl-].[Mn+3],-0.6
20,COC(=O)Nc1nc2cc(Sc3ccccc3)ccc2[nH]1 [Fenbendazole],1.59
21,CC(C)NC[C@@H](C(=O)N1CCN(c2ncnc3c2[C@H](C)C[C@H]3O)CC1)c1ccc(Cl)cc1 [Ipatasertib (GDC-0068)],1.03
22,CCCNC(=O)NS(=O)(=O)c1ccc(Cl)cc1 [Chlorpropamide],-2.23

row,SMILES,miR-132-3p level in NGN2-iNs
1,COc1ccc(-c2nc(N3CCOCC3)c3sc(CN(C)c4ncc(C(=O)NO)cn4)cc3n2)cn1,-0.747
2,COc1cc(-c2ncn(/C=C\C(=O)OC(C)C)n2)cc(C(F)(F)F)c1,-0.816
3,Cn1ncnc1[C@H]1c2n[nH]c(=O)c3cc(F)cc(c23)N[C@@H]1c1ccc(F)cc1 [Talazoparib (BMN 673)],-1.28
4,Cc1cnc(Nc2ccc(OCCN3CCCC3)cc2)nc1Nc1cccc(S(=O)(=O)NC(C)(C)C)c1,-0.413
5,CO[C@H]1/C=C/O[C@@]2(C)Oc3c(C)c(O)c4c(O)c(c5c(nc6cc(C)ccn65)c4c3C2=O)NC(=O)/C(C)=C\C=C\[C@H](C)[C@H](O)[C@@H](C)[C@@H](O)[C@@H](C)[C@H](OC(C)=O)[C@@H]1C [Rifaximin],-0.892
6,Clc1cccc(Cl)c1NC1=NCCN1 [Clonidine HCl],-0.398
7,Cc1csc(-c2nnc(Nc3ccc(Oc4ncccc4-c4ccnc(N)n4)cc3)c3ccccc23)c1,-0.116
8,Nc1nc2c(ncn2COC(CO)CO)c(=O)[nH]1 [Ganciclovir],0.487
9,CNCCc1ccccn1 [Betahistine 2HCl],-0.62
10,CC(C)Oc1ccc(-c2cnc3c(-c4ccnc5ccccc45)cnn3c2)cc1,-0.407
11,NCCCCCC(=O)O [(6-)ε-Aminocaproic acid],0.542
12,CC(C)CCNC(=O)[C@H](CC(C)C)NC(=O)[C@H]1O[C@@H]1C(=O)O [Loxistatin Acid (E-64C)],0.0243
13,COc1c(C)cnc(Cn2cnc3c(Cl)nc(N)nc32)c1C,-0.738
14,COc1ccc2c(Oc3ccc(NC(=O)c4c(C)n(CC(C)(C)O)n(-c5ccccc5)c4=O)nc3)ccnc2c1,0.775
15,Nc1nccc(Oc2ccc(NC(=O)c3c[nH]cc(-c4ccc(F)cc4)c3=O)cc2F)c1Cl,-0.0246
16,Cc1nc2c(-c3cnc(N)nc3)nc(N3CCOCC3)nc2n1C(C)C,0.29
17,NC(=O)Nc1cc(-c2cccc(F)c2)sc1C(=O)N[C@H]1CCCNC1,-2.85
18,O=C(c1ccc(F)cc1)C1CCN(CCn2c(=O)[nH]c3ccccc3c2=O)CC1 [Ketanserin],-0.801
19,CC(C)c1ccccc1Cc1cc(C(=O)Nc2ccc(S(=O)(=O)c3ccccc3C(C)(C)C)cc2)c(O)c(O)c1O,0.768
20,O=C(O)CCc1ccc(NCc2cccc(Oc3ccccc3)c2)cc1,-0.528
21,O=C1NCC2(CCN(CCc3ccccc3)CC2)O1 [Fenspiride HCl],-0.567
22,Clc1ccc2c(c1)CCc1cccnc1C2=C1CCNCC1 [Desloratadine],1.78

row,SMILES,miR-132-3p level in NGN2-iNs
1,CCS(=O)(=O)N1CC(CC#N)(n2cc(-c3ncnc4[nH]ccc34)cn2)C1,-1.65
2,COc1cc2c(cc1OC)[C@@H]1Cc3ccc(OC)c(OC)c3CN1CC2 [Rotundine],-0.871
3,Cc1ccc(C)c(OCCCC(C)(C)C(=O)O)c1 [Gemfibrozil],-1.06
4,O=C(O)C[C@H](O)C[C@H](O)/C=C/c1c(C2CC2)nc2ccccc2c1-c1ccc(F)cc1 [Pitavastatin Calcium],-1.96
5,C[C@H](NC(=O)CCc1nc2ccccc2c(=O)[nH]1)c1ccccc1,-0.454
6,NCC(=O)CCC(=O)O [5-Aminolevulinic acid HCl],1.29
7,COc1c(C)c2c(c(O)c1C/C=C(\C)CCC(=O)OCCN1CCOCC1)C(=O)OC2 [Mycophenolate Mofetil],0.394
8,CN1C(C(=O)Nc2ccccn2)=C(O)c2ccccc2S1(=O)=O [Piroxicam],-0.408
9,NCCS [Cysteamine HCl],0.649
10,O=C(O)c1ccc(-n2nc(-c3ccccc3O)nc2-c2ccccc2O)cc1 [Deferasirox],0.343
11,C[C@H]1COC2(CCN(c3nc(=O)c4cc(C(F)(F)F)cc([N+](=O)[O-])c4s3)CC2)O1 (racemic) [BTZ043 Racemate],0.506
12,Cc1cnc(-c2cnc(NCCNc3ccc(C#N)cn3)nc2-c2ccc(Cl)cc2Cl)[nH]1,-0.112
13,CCCNC(C)C(=O)Nc1c(C)csc1C(=O)OC (stereo unspecified) [Articaine HCl],-0.36
14,"CC(=O)C1=C(O)C=C2Oc3c(C(C)=O)c(O)c(C)c(O)c3C2(C)C1=O (single isomer, unassigned; (+)) [(+)-Usniacin]",0.435
15,O=C(O)c1cc2cccc([N+](=O)[O-])c2[nH]1,1.77
16,COc1ccc(CCc2nc3cc(-c4c(C)noc4C)ccc3n2C[C@H](C)N2CCOCC2)cc1Cl,0.133
17,CC(C[N+](C)(C)C)OC(N)=O (stereo unspecified) [Bethanechol chloride],0.873
18,COc1ccc(C[C@H](NC(=O)[C@H](C)NC(=O)CN2CCOCC2)C(=O)N[C@@H](Cc2ccccc2)C(=O)[C@@]2(C)CO2)cc1,1.12
19,Cc1ccc2nc(NCCN)c3ncc(C)n3c2c1,-0.598
20,CC(=O)c1cc([N+](=O)[O-])c(Sc2ccc(F)cc2F)s1,0.731
21,COc1ccc([C@@H]2Sc3ccccc3N(CCN(C)C)C(=O)[C@@H]2OC(C)=O)cc1 [Diltiazem HCl],0.185
22,COc1cc(NS(=O)(=O)c2ccc(N)cc2)nc(OC)n1 [Sulphadimethoxine],-0.32

# 5 entries from above, with bars between the fields.
row | SMILES | miR-132-3p level in NGN2-iNs
2 | COc1cc2c(cc1OC)[C@@H]1Cc3ccc(OC)c(OC)c3CN1CC2 [Rotundine] | -0.871
3 | Cc1ccc(C)c(OCCCC(C)(C)C(=O)O)c1 [Gemfibrozil] | -1.06
4 | O=C(O)C[C@H](O)C[C@H](O)/C=C/c1c(C2CC2)nc2ccccc2c1-c1ccc(F)cc1 [Pitavastatin Calcium] | -1.96
5 | C[C@H](NC(=O)CCc1nc2ccccc2c(=O)[nH]1)c1ccccc1 | -0.454
6 | NCC(=O)CCC(=O)O [5-Aminolevulinic acid HCl] | 1.29

# Additional structures.

row,SMILES,miR-132-3p level in NGN2-iNs
1,O=C1N=C(O)NC1(c1ccccc1)c1ccccc1 [Phenytoin Sodium],0.124
2,Cc1ccc(Cl)cc1N(CC(=O)Nc1c(F)cccc1F)S(C)(=O)=O,-0.172
3,Oc1nc(-c2ccc(C(F)(F)F)cc2)nc2c1CSCC2,0.471
4,NC1=NCC2c3ccccc3Cc3ccccc3N12 (stereo unspecified) [Epinastine HCl],1.44
5,CC(C)n1cnc2c(NCCc3ccc(O)cc3)nc(-c3csc4ccccc34)nc21 [StemRegenin 1 (SR1)],0.811
6,O=C(NNc1ccccc1)c1ccncc1,-0.455
7,Cc1cc(C#N)cc(C)c1Oc1nc(Nc2ccc(C#N)cc2)nc(N)c1Br [Etravirine (TMC125)],-0.39
8,O=c1[nH]c(=O)n([C@H]2C[C@H](O)[C@@H](CO)O2)cc1C(F)(F)F [Trifluridine],0.235
9,Cc1cc(F)c(Nc2ncnc3cc(OCc4ccccc4)ccc23)cc1O,0.817
10,NS(=O)(=O)c1ccc(NC(=O)Nc2ccc(F)cc2)cc1,2.62
11,S=c1[nH]cnc2nc[nH]c12 [Mercaptopurine (6-MP)],-0.877
12,O=C(NCCCNc1nc(Nc2cccc(NC(=O)N3CCCC3)c2)ncc1I)c1cccs1,-0.9
13,Cc1cccc(-c2[nH]ncc2-c2ccc3ncccc3n2)n1,-0.188
14,Nc1nc(=O)[nH]cc1F [Flucytosine],-0.0656
15,Oc1cc(O)cc(/C=C/c2ccc(O)c(O)c2)c1 [Piceatannol],-0.585
16,"Brc1ccc(C2CN3CCSC3=N2)cc1 (single isomer, unassigned; (-)) [(-)-p-Bromotetramisole Oxalate]",-0.415
17,CC[C@@]1(O)C(=O)OCc2c1cc1n(c2=O)Cc2cc3c(CN(C)C)c(O)ccc3nc2-1 [Topotecan HCl],0.141
18,CN(C)C(=O)c1cc2cnc(Nc3ccc(N4CCNCC4)cn3)nc2n1C1CCCC1 [Ribociclib (LEE011)],0.167
19,CC(=O)O[C@]1(C(C)=O)CC[C@H]2[C@@H]3C=C(C)C4=CC(=O)CC[C@]4(C)[C@H]3CC[C@@]21C [Megestrol Acetate],0.0684
20,C=C1[C@H](CO)[C@@H](O)C[C@@H]1n1cnc2c(=O)[nH]c(N)nc21 [Entecavir Hydrate],2.4
